{
  "source": "patent US9458203B2",
  "about": "(priority 2011, dated 2016)",
  "experiment": "general procedure: Fmoc solid-phase peptide synthesis; Fmoc-Phe(Otbu)-wang resin or Fmoc-Arg(Otbu)-CTC resin (I); Fmoc-Arg(Otbu)-wang or CTC resin (II); Fmoc-Phe(Otbu)-wang or",
  "conditions": "whole synthesis, RP-HPLC",
  "note": "Some peptides are written in HELM: one residue between dots, names in brackets for other building blocks, links after the first $.",
  "data": [
    {"substance": "PEPTIDE1{F.Q.P.V.L.H.L.V.A.L.N.S.P.L.S.G.G.M.R.G.I.R.G.A.D.F.Q.C.F.Q.Q.A.R.A.V.G.L.A.G.T.F.R.A}$$$$V2.0", "values": [
      {"measurement": "final HPLC purity", "result": 95.39, "unit": "%"}
    ]},
    {"substance": "PEPTIDE1{R.G.D.G.G.G.G.F.Q.P.V.L.H.L.V.A.L.N.S.P.L.S.G.G.M.R.G.I.R.G.A.D.F.Q.C.F.Q.Q.A.R.A.V.G.L.A.G.T.F.R.A}$$$$V2.0", "values": [
      {"measurement": "final HPLC purity", "result": 98.41, "unit": "%"}
    ]}
  ]
}
